Assay results published in PubChem BioAssay AID1347426 (Functional Genomics Laboratory (NCATS/FGL), 2020).
In all, about 31,000 sequences went through this assay and about 1,400 (4.5%) were called active.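 Rule for the calls: active = median seed-adjusted z-score above 1 or below -1; inactive = the rest.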 The list shows a part of the results.

Experiment: Novel Modifiers of Survival Motor Neuron (SMN) Protein: Gene Identification via Genome-wide siRNA Screen;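 note: luminescence tracks full-length SMN protein made from the SMN2 reporter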
Conditions: HEK293T SMN2-luciferase reporter, siRNA knockdown, 72 h; actives lie on both sides
Method in brief: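 siRNA screen, 10418 genes ×3 siRNAs; 1 pmol/well, lipid reverse transfection into HEK293T SMN2-luc reporter line. 72 h, 37 °C, 5% CO2; ONE-Glo readout. Data: neg-ctrl normalized, log10, MAD; hit = MAD >1.0 or < -1.0.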

| Sequence | median seed-adjusted z-score |
| --- | --- |
| CAAACCUAUACAUCUCAAATT against RBMS3 | inactive: 0.0976 |
| CAUGAUCAUCCGUAAAGUATT against RBPJL | inactive: 0.373 |
| CAAACUCCAACUUAUGAAATT against CD34 | inactive: -0.0898 |
| GCCUUAAGCUGACUUAGAATT against AKR7A2 | inactive: 0.192 |
| GAAGCUACAGACACCAAUATT against ENTPD4 | inactive: 0.324 |
| CGAUGACUUCUACACCUUUTT against ADCY7 | inactive: -0.0202 |
| CAAGACUACGAUUACCUCATT against CDH4 | inactive: 0 |
| AAAGAAUCAUUGUGAAAGATT against PARVA | inactive: 0.0852 |
| CGAACAACUAAAUACCACATT against PRMT2 | inactive: 0.0895 |
| GCAUUAGUGAGGAUAGGCATT against SLC25A30 | inactive: 0 |
| GCAUCAGUAUCUGACCUUUTT against UBE2N | inactive: 0.995 |
| AAGCACAACUUGACCGUGATT against USP20 | inactive: -0.369 |
| AGACUCAACCAGUACGUAATT against LYN | inactive: -0.178 |
| GCUCAUCGCUCAGAAGAAATT against SF4 | inactive: 0.498 |
| CAUACCUUAUGAAACAUAUTT against ZNF384 | inactive: -0.132 |
| GGAAUACAGGAACUUCUAATT against UBE2I | inactive: 0.717 |
| GCUAAAUGCCCUGAACAAATT against AKR1A1 | inactive: -0.255 |
| AGAAGAUCCUGUUCCAAGATT against TAOK2 | inactive: 0.28 |
| GAUCCAUCCUUCUCACGUUTT against ATXN2 | inactive: 0 |
| AGAUGUACGAUUAUAGUUUTT against CSNK2A1 | inactive: -0.408 |
| CCACCUAUAAGAUAGAAGATT against MTTP | inactive: 0 |
| AGAUGACCCAGAAAUAUGATT against PVRL4 | inactive: -0.266 |
| GCACAGUCCCAAUAACAGUTT against DLX3 | inactive: 0 |
| GGUCGGAGCAAGGAGAGAATT against CD300LB | inactive: -0.466 |
| GGGAAGAAAUUACGAUGGATT against TOR3A | inactive: 0.225 |
| GAAGACUUCCAUAAACGAATT against TPX2 | inactive: -0.564 |
| CCAGCUCUGGAAUUAGAUATT against NRBP1 | active: -1.13 |

| Sequence | median seed-adjusted z-score |
| --- | --- |
| GUAUACUCCAGAACAAGUATT against ALDOB | active: -1.34 |
| GCAUCCACAUUGACCAGAUTT against BAI1 | inactive: -0.663 |
| GCAACAUAUGGGAAUUAGATT against MEIS1 | inactive: 0 |
| GCUUUGGAAGGGUUUGAUATT against DCT | inactive: -0.184 |
| GUCUAAAUCUCGUUCCAAATT against SRrp35 | inactive: -0.0574 |
| CAUAAAAUGUGAGACUUCUTT against PPFIA4 | inactive: 0.0399 |
| GGACCCGGGCUUUAGCUAUTT against DVL1 | inactive: -0.814 |
| GGAUGUAAUUCACACGGAUTT against PNLIP | inactive: 0.385 |
| GAAUUCAGAUGCGAGUAAATT against RFX6 | inactive: 0.119 |
| GAAGAGGACUGAUAAUGGATT against MLLT6 | inactive: -0.281 |
| CCGUGUACGUGUUUGGUCATT against OTUD7A | inactive: -0.53 |
| GGAACUUGCAUCAACAAUATT against AGPAT9 | inactive: 0 |
| CUGUAUUAGUGAAUCCGAUTT against MTRR | inactive: -0.381 |
| AAGUACAUAUAACCACUUATT against RAB14 | inactive: -0.0567 |
| CCUGAAUUCUGGGUCAGAATT against AGXT2L2 | inactive: -0.0495 |
| AGCAUUCUGUUAUGACCUATT against FLNC | inactive: 0.00217 |
| ACAUUCAUGUGGGUGACUATT against CYP27B1 | inactive: -0.149 |
| GGAUCCAGGAUGAAAUUGATT against PADI2 | inactive: -0.199 |
| GCAUCAGCAUGUCGGUGGATT against ARID3A | active: -1.11 |
| GGAGCUGAAUGAGCUGACATT against OSBPL7 | inactive: 0 |
| CAGUAGAAGCGAUGCAGGUTT against RBM42 | inactive: 0 |
| GCAAGUCCCGCAAAAAGAATT against NEIL1 | inactive: -0.168 |
| GCUUAUGUAUGAGCACGAATT against KIF13B | inactive: 0.456 |
| GGAUGUCUCUUUGACCAUATT against HAVCR1 | inactive: -0.306 |
| GAAGGAGUCUUUGACAUUATT against RAB2A | inactive: -0.038 |
| CGGAUUUUGGAGCAUCUUATT against DYRK3 | inactive: 0.358 |
| GAAUCCGGAUGAGUACUAUTT against PHF17 | active: 1.01 |

Fetched one by one from the list above:

| Sequence | median seed-adjusted z-score |
| --- | --- |
| GAAUCCGGAUGAGUACUAUTT against PHF17 | active: 1.01 |
| AGAAGAUCCUGUUCCAAGATT against TAOK2 | inactive: 0.28 |
| CGAUGACUUCUACACCUUUTT against ADCY7 | inactive: -0.0202 |
